# Reference: patent publication US20250049741A1, “COMPOSITION FOR PREVENTING OR TREATING ALZHEIMER'S DISEASE COMPRISING PHOSPHOLIPASE C ACTIVATOR AS AN ACTIVE INGREDIENT” (Korea University Research and Business Foundation, priority 2021, published 2025)
# Experiments:
# [1] = system: hippocampal CA3-CA1 excitatory synapses; test: S-eCB mobilization induced spike timing-dependent potentiation (tLTP) protocol, EPSP slope; assay type: cell-based, Sprague-Dawley rats; details: DMSO-treated rat hippocampal slices; D-AP5 50 μM or AM251 3 μM
# Procedure: Soluble AβO was prepared according to a previous study (BMC Biol. 2020; 18(1):7). Specifically, Aβ1-42 (Aβ) and a scrambled form of Aβ as a control peptide were purchased in powder form. Aβ and scrambled Aβ were dissolved for monomerization in 1,1,1,3,3,3-hexafluoro-2-propanol (HFIP, Sigma Aldrich, USA) at a final concentration of 1 mM, and the solution was incubated for 90 minutes. After the HFIP was evaporated, the remaining thin and clear film of Aβ or scrambled Aβ was dissolved in dimethyl sulfoxide (DMSO, Sigma Aldrich, USA) to prepare 5 mM Aβ or scrambled Aβ stocks, which were aliquoted and frozen at −20° C. Aβ or scrambled Aβ stocks were thawed and diluted to 100 μM in artificial cerebrospinal fluid (ACSF). Thereafter, Aβ or scrambled Aβ stocks were incubated for oligomerization for 18 hours. The final AβO or scrambled AβO stock solution was diluted to a final concentration of 200 nM in 31.2 ml of ACSF, and rat hippocampal slices were treated with the stock solution for 20 minutes in a recovery chamber before measurement of brain signals. In control experiments for normal brain conditions using a vehicle, rat hippocampal slices were treated with 0.004% DMSO in ACSF. […]
# [2] = system: CA1 PCs in rat hippocampal slices; test: Ex vivo eCB / S-eCB mobilization protocol: eIPSC amplitudes by whole-cell voltage-clamp; assay type: cell-based, Sprague-Dawley rats; details: AM251 3 μM; DMSO-treated rat hippocampal slices
# Excerpt: To test the acute effect of AβO on hippocampal S-eCB mobilization, hippocampal slices from Sprague-Dawley rats (SD, 2 to 3 weeks old, DaeHan Biolink, Co., Ltd., Korea) were used. Male and female rats were used in all in vitro experiments. To test the chronic effect of AβO on hippocampus-dependent memory impairments caused by amyloidosis, the 5XFAD mouse model (6 to 7 months old, #34840-JAX, Jackson Laboratory, USA), which is a mouse model of Alzheimer's disease that mimics AβO depositions, was used. C57BL/6 mice (6 to 7 months old, KOATECH, Korea) were used as wild type (WT) control mice for 5XFAD mice. Male 5XFAD and C57BL/6 mice were used for all in vivo behavioral experiments. The 5XFAD mouse genotypes were identified by polymerase chain reaction (PCR) using DNA extracted from the tails of the mice. […]
# To quantify eCB mobilization, the changes in eCB mobilization-induced Schaffer collateral (SC) nerve bundle stimulation-evoked inhibitory postsynaptic current (eIPSC) amplitudes were measured in CA1 PCs through the whole-cell voltage-clamp technique. […] Electrical stimulation pulses of 200 to 400 μA amplitudes (20 to 40 μs) were generated using a constant current stimulator (model DS3, Digitimer Ltd., UK). eIPSCs were recorded in CA PCs every 1 second while maintaining the membrane potential at −70 mV.
smiles,measurement,setting,value
Cc1c(C(=O)NN2CCCCC2)nn(-c2ccc(Cl)cc2Cl)c1-c1ccc(I)cc1 [AM251],mGluR5-mediated LTD in the presence of antagonist,[1],induced in both the test and control pathways
same,"tLTP induction (EPSP slope, test pathway), effect of antagonist",[1],completely blocked
same,effect on suppression of eIPSC amplitudes by DHPG puff with 1 Hz neural spike trains (S-eCB mobilization),[2],completely blocked
